Source: PubChem BioAssay AID310 (DTP/NCI, 2004)
The list shows only some results of the screen, not a fair sample: its compounds were picked by chemical class. Not every dose and run of a compound is shown. T/C: endpoint of the treated group in % of that of the vehicle group. Some entries show no survivor count and are marked so; the dose need not have been tolerated. Schedules are NCI's codes, taken here to give the interval after Q, in days (D) or hours (H), and the number of doses after X. Some entries were tested several times; their values stand side by side, smallest first.

Tested on: C3AKF1 mice, osteogenic sarcoma HE10734 s.c., tumor weight T/C
Test: NCI In Vivo Anticancer Drug Screen. Data for tumor model Osteogenic Sarcoma HE 10734 (subcutaneous) in C3AKF1 (CHKRF1) mice
Settings: T/C endpoint: mean tumor weight, schedule: Q01DX010 (ip), evaluation day not shown, higher T/C = larger tumour
Method: The antitumor activity of compounds was measured in mice bearing transplantable tumors. Survival or tumor size were measured and the results are expressed as the measurement made in the treated group (T) divided by the measurement made in the vehicle treated control group (C). The tumor model used in this assay is Osteogenic Sarcoma HE 10734 (subcutaneous) in C3AKF1 (CHKRF1) mice

Cc1cc2nc(CN(CCCl)CCCl)[nH]c2cc1C
T/C (dose: 6.0 mg/kg/injection, vehicle: saline): 66 % of control [survivor count not shown] | T/C (dose: 12.0 mg/kg/injection, vehicle: saline): 19 % of control [survivor count not shown]

COCc1c(CN(CCCl)CCCl)cnc(C)c1O
T/C (dose: 1.25 mg/kg/injection, vehicle: carboxymethylcellulose (CMC)): 106 % of control [survivor count not shown] | T/C (dose: 2.5 mg/kg/injection, vehicle: carboxymethylcellulose (CMC)): 67 % of control [survivor count not shown] | T/C (dose: 5.0 mg/kg/injection, vehicle: carboxymethylcellulose (CMC)): 64 % of control [survivor count not shown] | T/C (dose: 10.0 mg/kg/injection, vehicle: carboxymethylcellulose (CMC)): 74 [survivor count not shown] and 116 % of control [survivor count not shown] | T/C (dose: 15.0 mg/kg/injection, vehicle: carboxymethylcellulose (CMC)): 30 % of control [survivor count not shown]

ClCCCCC(CCl)NCCCl (stereo not drawn)
T/C (dose: 25.0 mg/kg/injection, vehicle: saline): 46 % of control [survivor count not shown]
